From article PMC7819943, “Rice protein-binding microarrays: a tool to detect cis-acting elements near promoter regions in rice” come the findings set out here.

Sequences of proteins named here, by UniProt entry; tags and fusion partners are left off.
UniProt Q0JBA9, entry or part of it: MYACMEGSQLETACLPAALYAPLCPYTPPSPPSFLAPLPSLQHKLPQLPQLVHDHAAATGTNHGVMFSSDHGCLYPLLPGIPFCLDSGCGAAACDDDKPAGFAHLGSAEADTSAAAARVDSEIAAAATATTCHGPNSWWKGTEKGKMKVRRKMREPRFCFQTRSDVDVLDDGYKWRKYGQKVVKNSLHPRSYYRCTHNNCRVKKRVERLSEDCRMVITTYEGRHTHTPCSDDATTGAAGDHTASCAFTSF

This is one part of the list.

The target of the experiment is OsWRKY34 (Oryza sativa, UniProt Q0JBA9 1-250). Briefly: protein-binding microarray (RPBM); PBS, 2% BSA, 51.3 ng/ul salmon testes DNA, 50 uM zinc acetate, 200 nM TF, 25 C, 1 h; high values mean tight binding. Conditions: protein: recombinant; tags: N-terminal polyhistidine and DsRed monomer fusion (pET32a); label: CyDye5-dUTP incorporated in the synthesized complementary strand; 3' TTTTT single-stranded linker to array surface; dsDNA, one strand shown. An outline of the steps: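 Ni–NTA purification followed expression in E. coli BL21-CodonPlus of transcription factors fused N-terminally to a polyhistidine tag and DsRed. At 200 nM in PBS with 2% BSA, salmon testes DNA and 50 µM zinc acetate, the protein was incubated for 1 h at 25 °C with a custom Agilent array that had been primer-extended with Cy5-dUTP and blocked with 2% BSA. After washing, the array was read on an Axon 4000B scanner. The binding signal is per-feature fluorescence intensity in arbitrary units.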
“GTATCATGGTGTATGGCCTACTTGGTGCTATTTGTATGAGCGGAGTCACCTAGTGCAG”: the binding signal was 8130 fluorescence intensity (a.u.).

For “GCGATATCTTGCCGTCCCCGTTGGTGTCGAACCGCTTGAACGGAGTCACCTAGTGCAG”, the binding signal is 11500 fluorescence intensity (a.u.).

Turning to “GCGAGGACTAAGTGCCTCTTTTGTAAGTATTTTACGCTTTCGGAGTCACCTAGTGCAG”, the binding signal was 8110 fluorescence intensity (a.u.).

Take “TGAGTCACTTCTTCTCTGTCCATATTCTATTTCTCCTCCACGGAGTCACCTAGTGCAG”: the binding signal is 8170 fluorescence intensity (a.u.).

Take “TTCCGCTGCATTTCTCTACACAGCCACGTTGCTCCAACAACGGAGTCACCTAGTGCAG”: the binding signal was 11200 fluorescence intensity (a.u.).

“CACCTAGTCAGCATGAGTGAACCGGGTCAACTTACCACATCGGAGTCACCTAGTGCAG”: the binding signal is 8020 fluorescence intensity (a.u.).

Take “AGAACTCAGAGACAACAGACTTCCATATGACACACTCCTTCGGAGTCACCTAGTGCAG”: the binding signal was 8120 fluorescence intensity (a.u.).

With “AATTATTTATTGATTGTTATTTTTTTCGCGAACGCTTTATCGGAGTCACCTAGTGCAG”, the binding signal is 8150 fluorescence intensity (a.u.).

Turning to “CGCGCTCGCCTGTCTTCGCTGTCGTCGGCCGTTGCTCTCCCGGAGTCACCTAGTGCAG”, the binding signal is 14200 fluorescence intensity (a.u.).

For “TCTGATTACTGCTTATTGAGTTACAACCTGCTATATTACACGGAGTCACCTAGTGCAG”, the binding signal is 8970 fluorescence intensity (a.u.).

As for “ACGGAGGAACAACGCATGCAAATCTTCATGGCCGGCCTTCCGGAGTCACCTAGTGCAG”, the binding signal is 8450 fluorescence intensity (a.u.).

Regarding “ATCAAGCTTTCGTCAGATCTCACGCTTATTTCTTCTCTCCCGGAGTCACCTAGTGCAG”, the binding signal was 8520 fluorescence intensity (a.u.).

Regarding “GTATCATTGGTTTTCATTTGTTTGGTGTGTCAGAGGCATACGGAGTCACCTAGTGCAG”, the binding signal is 10300 fluorescence intensity (a.u.).

“GATGCTGCATGGCACTTAAGTTGTATTTATGTGTGTGTACCGGAGTCACCTAGTGCAG”: the binding signal was 8190 fluorescence intensity (a.u.).

For “GCATGAGGTCTCCACCTCACCACAAGTCGCTCCACATCGACGGAGTCACCTAGTGCAG”, the binding signal is 8280 fluorescence intensity (a.u.).

Consider “CAAATATTTAGTCCCTGTTTCCCTGTCATTGCCTTCGACTCGGAGTCACCTAGTGCAG”, for which the binding signal was 10600 fluorescence intensity (a.u.).

On to “AGTATAACCACCGGGCCCCACGCGTCATCCTCCCGCGCGTCGGAGTCACCTAGTGCAG”, for which the binding signal was 13100 fluorescence intensity (a.u.).

“ACATAGCTCCTCCAAATATTTGTTTTGACTTGAAATCATCCGGAGTCACCTAGTGCAG”: the binding signal was 8710 fluorescence intensity (a.u.).

Turning to “GGGAGGGGTCAGATCTCGGGAGCTTACCGGCGAGTAGAGCCGGAGTCACCTAGTGCAG”, the binding signal was 8240 fluorescence intensity (a.u.).

For “TTTAAGTTTGTTTGGTTGTGGGTTATAGGCTCTATTTCAACGGAGTCACCTAGTGCAG”, the binding signal was 12000 fluorescence intensity (a.u.).

“ACTCCTATAACTCGTTTTCTATAGGCACATTTTCTAAATTCGGAGTCACCTAGTGCAG”: the binding signal was 9500 fluorescence intensity (a.u.).

For “GCCAACCGCATGCCGTCCCCGATGCCGCCCGCCGTCAACCCGGAGTCACCTAGTGCAG”, the binding signal was 8290 fluorescence intensity (a.u.).

Consider “CTGCTCAAGCAAGACTAATTACCGGTTGTTTACCCTACCTCGGAGTCACCTAGTGCAG”, for which the binding signal was 8210 fluorescence intensity (a.u.).

As to “ACAGGAAACCCAATTCGATCCCTTCTATCTATCGATCCAACGGAGTCACCTAGTGCAG”, the binding signal was 8270 fluorescence intensity (a.u.).

Regarding “AGTGTGCTCCATTTTCATTCGCTCTTAGATGTGTTTCATTCGGAGTCACCTAGTGCAG”, the binding signal is 9370 fluorescence intensity (a.u.).

On to “AAGAGAGAGAGGGAGGGCAGCAGAAGGGGAGCGGCGAAGCCGGAGTCACCTAGTGCAG”, for which the binding signal is 9570 fluorescence intensity (a.u.).

Consider “CTTCACGGTCGGACTCGTCTTCTCCGGTCTCCCCAAATCGCGGAGTCACCTAGTGCAG”, for which the binding signal was 8150 fluorescence intensity (a.u.).

As to “TCCCGGTGGAGTGGGAGGGGTGGCGGCTCAGACGGCGTGGCGGAGTCACCTAGTGCAG”, the binding signal was 12000 fluorescence intensity (a.u.).

Turning to “TCGTCGATCATGTCACGGGCTCATCATCCACGCCGACGTACGGAGTCACCTAGTGCAG”, the binding signal is 8570 fluorescence intensity (a.u.).

Take “CTTTTATCTCTTTCTCTGGCCACCAAGCTGGTTGTTGTATCGGAGTCACCTAGTGCAG”: the binding signal is 12200 fluorescence intensity (a.u.).

Take “GCCGGACCCACCACCGCCACCACTGCCCATTCGCCACGTCCGGAGTCACCTAGTGCAG”: the binding signal is 13700 fluorescence intensity (a.u.).

Consider “TGACCTCACTTTTTTTTGTCACTTACATGCGGGCCCCACACGGAGTCACCTAGTGCAG”, for which the binding signal was 8460 fluorescence intensity (a.u.).

For the sequence “TAAACACACATCCTACCCAAACCCACGTATATATAAACCCCGGAGTCACCTAGTGCAG”, the binding signal was 8630 fluorescence intensity (a.u.).

Turning to “GTGATTTTTGACTATTTACCTTGTATGGCTTGATTGCAACCGGAGTCACCTAGTGCAG”, the binding signal is 10000 fluorescence intensity (a.u.).

As for “AGTAATCCCTACACGACACACAATCCCTACACTCTACCTGCGGAGTCACCTAGTGCAG”, the binding signal is 8240 fluorescence intensity (a.u.).

As to “GTGCGGGAACTTTTTTTTTTGGTCATTTTTGTATGACGTGCGGAGTCACCTAGTGCAG”, the binding signal was 8240 fluorescence intensity (a.u.).

Regarding “CTTTTCCCTTAATCTCTATTGTTGTTCAATCATTCAACCCCGGAGTCACCTAGTGCAG”, the binding signal is 8840 fluorescence intensity (a.u.).

On to “CTTGCACTGTTGGTCTTGGGCCGTCTCGTCGAATGTTCCGCGGAGTCACCTAGTGCAG”, for which the binding signal is 9870 fluorescence intensity (a.u.).

Turning to “CAGGGTTGGTCGCTACCACTTCGGAGGTGCCAGATCTGGCCGGAGTCACCTAGTGCAG”, the binding signal is 8310 fluorescence intensity (a.u.).

With “TCGGAGTGGGGAGATGGTGTCGGGGTGCTGGGTTTCCGGGCGGAGTCACCTAGTGCAG”, the binding signal was 13100 fluorescence intensity (a.u.).

Regarding “TTACGAGCTCACATGTAATATTGTACATTTTTTCTCTTGACGGAGTCACCTAGTGCAG”, the binding signal is 10100 fluorescence intensity (a.u.).

Turning to “CAGTGCGTGTCGTCGTTTCAAATTGGGCTCCATTTAAGTCCGGAGTCACCTAGTGCAG”, the binding signal was 8490 fluorescence intensity (a.u.).
